Assay results from article PMC12176286.
No constants are given. Whether binding was seen depends on the method and setting. Binding seen in cells or lysates may run through a third protein. Some entries that bind do so weakly or less than the wild type. For some assays here: Where a sequence is shown, tags or fusion partners need not be part of it.

Sequences of proteins named here, by UniProt entry; tags and fusion partners are left off. Residues count along the entry.
UniProt P29323, residues 19-1055: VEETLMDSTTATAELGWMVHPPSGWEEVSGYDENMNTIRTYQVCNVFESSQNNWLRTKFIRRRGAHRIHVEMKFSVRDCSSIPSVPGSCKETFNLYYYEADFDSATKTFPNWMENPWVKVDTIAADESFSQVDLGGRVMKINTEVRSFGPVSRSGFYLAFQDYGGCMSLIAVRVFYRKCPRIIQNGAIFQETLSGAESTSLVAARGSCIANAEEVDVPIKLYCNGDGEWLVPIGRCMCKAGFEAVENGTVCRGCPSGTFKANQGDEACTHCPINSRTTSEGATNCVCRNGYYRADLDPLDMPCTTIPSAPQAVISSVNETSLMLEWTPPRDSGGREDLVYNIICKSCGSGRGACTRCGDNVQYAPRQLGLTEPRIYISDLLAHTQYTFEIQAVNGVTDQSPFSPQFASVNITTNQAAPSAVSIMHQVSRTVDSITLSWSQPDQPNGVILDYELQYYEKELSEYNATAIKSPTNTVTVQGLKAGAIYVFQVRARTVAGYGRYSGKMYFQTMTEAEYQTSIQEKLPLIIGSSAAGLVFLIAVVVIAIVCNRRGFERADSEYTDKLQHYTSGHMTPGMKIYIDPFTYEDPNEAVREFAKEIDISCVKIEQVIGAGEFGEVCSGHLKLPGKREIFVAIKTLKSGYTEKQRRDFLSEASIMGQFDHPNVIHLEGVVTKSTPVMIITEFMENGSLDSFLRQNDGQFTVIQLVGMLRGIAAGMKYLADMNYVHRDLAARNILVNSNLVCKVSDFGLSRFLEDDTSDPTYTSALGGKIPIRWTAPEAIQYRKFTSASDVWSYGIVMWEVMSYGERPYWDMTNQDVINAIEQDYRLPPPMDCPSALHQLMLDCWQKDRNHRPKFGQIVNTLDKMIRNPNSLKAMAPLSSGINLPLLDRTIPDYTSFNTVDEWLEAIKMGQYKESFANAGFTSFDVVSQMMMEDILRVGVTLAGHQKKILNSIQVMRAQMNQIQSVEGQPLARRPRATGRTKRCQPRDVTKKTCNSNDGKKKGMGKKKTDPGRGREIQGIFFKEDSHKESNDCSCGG
UniProt P54756, residues 25-1037: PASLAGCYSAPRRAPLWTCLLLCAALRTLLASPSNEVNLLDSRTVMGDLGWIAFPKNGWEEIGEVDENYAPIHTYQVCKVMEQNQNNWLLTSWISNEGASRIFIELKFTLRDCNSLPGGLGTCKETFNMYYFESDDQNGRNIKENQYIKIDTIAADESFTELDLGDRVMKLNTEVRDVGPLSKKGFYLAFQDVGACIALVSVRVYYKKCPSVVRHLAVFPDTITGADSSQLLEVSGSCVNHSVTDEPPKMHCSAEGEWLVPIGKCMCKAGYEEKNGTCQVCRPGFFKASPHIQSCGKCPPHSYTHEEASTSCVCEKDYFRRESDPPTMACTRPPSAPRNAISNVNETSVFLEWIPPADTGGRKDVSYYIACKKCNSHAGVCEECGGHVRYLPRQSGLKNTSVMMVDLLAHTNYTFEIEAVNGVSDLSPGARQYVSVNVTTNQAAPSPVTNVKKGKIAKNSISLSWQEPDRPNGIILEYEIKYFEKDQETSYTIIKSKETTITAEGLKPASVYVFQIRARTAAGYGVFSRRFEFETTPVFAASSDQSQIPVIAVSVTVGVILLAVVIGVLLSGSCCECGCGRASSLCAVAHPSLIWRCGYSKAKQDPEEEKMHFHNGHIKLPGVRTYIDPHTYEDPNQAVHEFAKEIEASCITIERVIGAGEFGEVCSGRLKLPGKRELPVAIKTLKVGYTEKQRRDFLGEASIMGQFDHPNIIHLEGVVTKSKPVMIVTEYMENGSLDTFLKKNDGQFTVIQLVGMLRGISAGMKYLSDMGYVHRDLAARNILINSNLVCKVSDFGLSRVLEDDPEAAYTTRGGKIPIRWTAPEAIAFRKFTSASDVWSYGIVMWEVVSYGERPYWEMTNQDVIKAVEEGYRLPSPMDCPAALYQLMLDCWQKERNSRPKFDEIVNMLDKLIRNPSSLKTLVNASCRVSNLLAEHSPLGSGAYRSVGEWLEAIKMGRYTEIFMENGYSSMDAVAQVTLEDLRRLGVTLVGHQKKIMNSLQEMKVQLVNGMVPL

Columns and labels:
[1] = biological target: WT EPHB2 (reconstituted in EPHB2-knockout THP-1 cells) (UniProt P29323); assay: co-IP; EPHB2-knockout THP-1 cells reconstituted with WT EPHB2; stimulated with Curdlan (100 µg/mL) or α-Mannan (100 µg/mL) for the indicated times; immunoprecipitated with an anti-Flag antibody; Western blot
EPHB2-HA = EPHB2-HA (UniProt P29323); assay: co-IP; HEK293T cells co-transfected with two tagged constructs; lysis in 0.5% Triton X-100, 20 mM HEPES pH 7.4, 150 mM NaCl; lysates with anti-HA or anti-Flag antibody overnight at 4°C, protein A/G Sepharose beads 2 hours, four washes; Western blot
Dectin1-HA = biological target: T1, Dectin1-HA (UniProt Q9BXN2); assay: as above
T1 sequence: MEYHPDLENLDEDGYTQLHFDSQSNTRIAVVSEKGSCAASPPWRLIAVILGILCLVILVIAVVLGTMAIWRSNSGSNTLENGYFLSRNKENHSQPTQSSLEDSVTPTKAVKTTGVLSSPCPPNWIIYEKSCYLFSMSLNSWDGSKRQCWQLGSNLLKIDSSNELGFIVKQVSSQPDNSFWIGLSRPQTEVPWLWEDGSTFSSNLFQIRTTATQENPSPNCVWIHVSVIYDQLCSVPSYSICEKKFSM

EPHA5-Flag [2] = biological target: EPHA5-Flag (UniProt P54756); assay: as above
[3] = biological target: EPHA5-WT-Flag (reconstituted in EPHA5 knockdown THP-1 cells) (UniProt P54756); assay: co-IP; EPHA5 knockdown (EPHA5-g2) THP-1 cells reconstituted with EPHA5-WT-Flag; stimulated with Curdlan (100 µg/ml) or α-Mannan (100 µg/mL) for the indicated times; immunoprecipitated with an anti-Flag antibody; EPHA5 dimers and monomers on the Western blot
EPHA5-Flag [4] = biological target: EPHA5-Flag (UniProt P54756); assay: co-IP; HEK293T cells cotransfected with EPHA5-Flag, EPHB2-HA and Dectin1-HA together; immunoprecipitated with an anti-Flag antibody; Western blot
EPHA5-HA = EPHA5-HA (UniProt P54756); assay: co-IP; HEK293T cells co-transfected with two tagged constructs; lysis in 0.5% Triton X-100, 20 mM HEPES pH 7.4, 150 mM NaCl; lysates with anti-HA or anti-Flag antibody overnight at 4°C, protein A/G Sepharose beads 2 hours, four washes; Western blot

Molecule: EPHA5 (in EPHB2-KO THP-1 cells reconstituted with EPHB2) (from UniProt P54756 25-1037) (receptor)
- binding [1]: binds

Molecule: EPHA5-Flag (from UniProt P54756 25-1037) (receptor)
- binding (EPHB2-HA): binds
- binding (Dectin1-HA): binds
- binding (EPHA5-Flag [2]): binds

Molecule: EPHA5-WT-Flag (reconstituted in EPHA5 knockdown THP-1 cells) (from UniProt P54756 25-1037) (receptor)
- binding [3]: binds

Molecule: EPHB2-HA (from UniProt P29323 19-1055) (receptor)
- binding (EPHA5-Flag [4]): binds

B1: Dectin2-Flag (receptor, UniProt Q6EIG7 1-209)
chain: MMQEQQPQSTEKRGWLSLRLWSVAGISIALLSACFIVSCVVTYHFTYGETGKRLSELHSYHSSLTCFSEGTKVPAWGCCPASWKSFGSSCYFISSEEKVWSKSEQNCVEMGAHLVVFNTEAEQNFIVQQLNESFSYFLGLSDPQGNNNWQWIDKTPYEKNVRFWHLGEPNHSAEQCASIVFWKPTGWGWNDVICETRRNSICEMNKIYL
- binding (EPHA5-HA): binds

B2: Dectin1-HA (receptor, UniProt Q9BXN2 1-247)
chain: MEYHPDLENLDEDGYTQLHFDSQSNTRIAVVSEKGSCAASPPWRLIAVILGILCLVILVIAVVLGTMAIWRSNSGSNTLENGYFLSRNKENHSQPTQSSLEDSVTPTKAVKTTGVLSSPCPPNWIIYEKSCYLFSMSLNSWDGSKRQCWQLGSNLLKIDSSNELGFIVKQVSSQPDNSFWIGLSRPQTEVPWLWEDGSTFSSNLFQIRTTATQENPSPNCVWIHVSVIYDQLCSVPSYSICEKKFSM
- binding (EPHA5-Flag [4]): binds
